No constants are given. Whether binding was seen depends on the method and setting. Some binding calls cover weakened binding; strength is not graded here. For some of these results: Sequences can lack the tags named with a protein.
Legend:
Test in all cases: cross-linking
[1] = molecular target: Recombinant His6-ExoU (Pseudomonas aeruginosa Exotoxin U, full length) (Pseudomonas aeruginosa) (UniProt O34208)
[2] = molecular target: T1, Recombinant His6-ExoU (Pseudomonas aeruginosa Exotoxin U, full length) (Pseudomonas aeruginosa), O34208; details: remark: other sources report otherwise
T1 chain: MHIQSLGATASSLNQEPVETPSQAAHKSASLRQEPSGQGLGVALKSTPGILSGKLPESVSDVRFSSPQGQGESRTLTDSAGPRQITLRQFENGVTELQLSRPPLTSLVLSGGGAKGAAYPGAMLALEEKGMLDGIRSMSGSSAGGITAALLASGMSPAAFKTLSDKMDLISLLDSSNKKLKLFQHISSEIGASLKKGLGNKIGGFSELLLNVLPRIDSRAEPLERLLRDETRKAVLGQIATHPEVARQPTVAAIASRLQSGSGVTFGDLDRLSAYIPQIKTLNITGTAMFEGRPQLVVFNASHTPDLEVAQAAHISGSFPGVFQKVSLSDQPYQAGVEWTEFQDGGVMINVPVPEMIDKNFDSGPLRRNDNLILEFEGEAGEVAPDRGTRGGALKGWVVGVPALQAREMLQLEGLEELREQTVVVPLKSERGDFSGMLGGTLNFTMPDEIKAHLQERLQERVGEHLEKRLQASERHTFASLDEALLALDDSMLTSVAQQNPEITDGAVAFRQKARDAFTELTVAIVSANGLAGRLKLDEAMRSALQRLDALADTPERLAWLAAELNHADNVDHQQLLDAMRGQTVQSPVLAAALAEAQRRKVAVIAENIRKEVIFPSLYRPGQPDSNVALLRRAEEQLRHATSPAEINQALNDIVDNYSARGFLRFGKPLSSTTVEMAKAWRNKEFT

[3] = molecular target: T1, Recombinant His6-ExoU (Pseudomonas …); details: remark: other sources report otherwise
[4] = molecular target: T1, Recombinant His6-ExoU (Pseudomonas …); details: remark: other sources report otherwise

Recombinant His6-ExoU (Pseudomonas aeruginosa Exotoxin U, full length) (from UniProt O34208 1-687) (enzyme)
binding [1]: binds weakly

B1: Recombinant His6-ExoU (Pseudomonas aeruginosa Exotoxin U, full length), O34208 1-687 (enzyme)
chain: T1 chain
binding [2]: binds | binding [3]: binds | binding [4]: binds
